Test results: patent publication US12357598B2, “Treatment of neurodevelopmental disorders” (THE REGENTS OF THE UNIVERSITY OF CALIFORNIA, priority 2018, dated 2025)
Entries after “also recorded” stand apart in the source; their conditions may differ. At least one structure is not confirmed: it was looked up by name or label, or the drawing left a doubt.

Assays:
Format in all cases: in vivo, mouse
ddY mice [1] = assay: Locomotion test, offspring after MIA; settings: among the four groups
ddY mice [2] = assay: Three-chamber social interaction test, offspring after MIA; settings: juvenile offspring after MIA; TPPU 15 mg/L in drinking water to pregnant mice E12-P21
parvalbumin (PV) = assay: PV immunohistochemistry in mPFC, offspring after MIA
Procedure: (§1) Immunohistochemistry. Immunohistochemistry of PV was performed as reported previously (37,39,59,60). Mice were anesthetized with 5% isoflurane and sodium pentobarbital (50 mg/kg), and perfused transcardially with 10 mL of physiological saline, followed by 40 mL of ice-cold 4% paraformaldehyde in 0.1M phosphate buffer (pH 7.4). Brains were removed from the skulls and post fixed overnight at 4° C. in the same fixative. For the immunohistochemical analysis, 50 μm-thick serial, coronal sections of brain tissue were cut in ice-cold 0.01M phosphate buffered saline (pH 7.5) using a vibrating blade microtome (VT1000s, Leica Microsystems, Tokyo, Japan). Free-floating sections were treated with 0.3% H2O2 in 50 mM Tris-HCl saline (TBS) for 30 min and were blocked in TBS containing 0.2% Triton X-100 (TBST) and 1.5% normal serum for 1 h at room temperature. […] The sections were imaged, and the staining intensity of PV (or GADO immunoreactivity in the inflalimbic (IL) and prelimbic (PrL) regions of mPFC was analyzed using a light micro-scope equipped with a CCD camera (Olympus IX70, Tokyo, Japan) and the SCION IMAGE software package. Images of sections within mPFC region were captured using a 100× objective with a Keyence BZ-X710 microscope (Keyence Corporation, Osaka, Japan).

GAD67 = GAD67 immunohistochemistry in mPFC, offspring after MIA; settings: adult offspring after MIA; TPPU 15 mg/L in drinking water P28-P56; vs poly(I:C)+control
Procedure: as §1

[3] = tested on: ER stress signaling pathway; assay: Western blot of ER stress markers in PFC, offspring after MIA; settings: TPPU 15 mg/L in drinking water P28-P56
ddY mice [4] = assay: Three-chamber social interaction test, offspring after maternal glyphosate exposure; settings: juvenile offspring after maternal glyphosate exposure; TPPU 3 mg/kg/day orally to pregnant mice E5-P21
Procedure: Treatment of TPPU. TPPU was dissolved in polyethylene glycol 400 (PEG 400: Tokyo Chemical Industry Co., Ltd, Tokyo, Japan). TPPU (3 mg/kg/day) or vehicle (5 ml/kg, PEG 400) was administered orally in the pregnant mice from E5 to P21. Behavioral tests of offspring were performed during juvenile stage (P28-P35) after maternal glyphosate exposure (FIG. 1A).
Three-chamber Social Interaction Test: The three-chamber social interaction test was performed to investigate sociability and preference for social novelty in mice, as reported previously (7). The apparatus consisted of a rectangular, three-chambered box and a lid with a video camera (BrainScience Idea, Co., Ltd, Osaka, Japan). Each chamber (20 cm×40 cm×20 cm) was divided by a clear plastic wall with a small square opening (5 cm×8 cm). First, each subject mouse was placed in the box and allowed to explore for 10 min to habituate the environment. During the session, an empty wire cage (10 cm in diameter, 17.5 cm in height, with vertical bars 0.3 cm apart) was located in the center of left and right chamber. Next, an unfamiliar ddY male mouse (stranger 1) that had no prior contact with the subject mouse was put into a wire cage that was placed into one of the side chambers. […] The time spent in each chamber and the time spent around each cage was recorded on video.

ddY mice [5] = assay: Grooming test, offspring after maternal glyphosate exposure; settings: juvenile offspring after maternal glyphosate exposure; TPPU 3 mg/kg/day orally to pregnant mice E5-P21
[6] = juvenile offspring after MIA, TPPU 15 mg/L in drinking water to pregnant mice E12-P21

CCC(=O)N1CCC(NC(=O)Nc2ccc(OC(F)(F)F)cc2)CC1 [TPPU, 1-trifluoromethoxyphenyl-3-(1-propionylpiperidin-4-yl) urea]
locomotion (open field test) (ddY mice [1]; adult offspring after MIA, TPPU 15 mg/L in drinking water P28-P56): unchanged
locomotion (ddY mice [1]; [6]): no differences
social interaction deficits, three-chamber social interaction test (ddY mice [2]): significantly attenuated; also recorded: significantly improved
PV-IR in the PrL of the mPFC (parvalbumin (PV); adult offspring after MIA, TPPU 15 mg/L in drinking water P28-P56, vs poly(I:C)+control): significantly attenuated; also recorded: significantly higher
reduction of PV-IR in the PrL in the mPFC (parvalbumin (PV); [6]): significantly attenuated
GAD67-IR in the PrL of the mPFC (GAD67): significantly attenuated; also recorded: significantly higher
ER stress [3]: significantly attenuated
social interaction deficits, three-chamber social interaction test (ddY mice [4]): significantly attenuated; also recorded: significantly improved
increased grooming time (ddY mice [5]): significantly attenuated; also recorded: significantly ameliorated
